Values of other authors as cited in patent US20200297722A1, “pH-Modulated Formulations for Pulmonary Delivery” (GRIFOLS, S.A., priority 2009, published 2020).
At least one structure is not confirmed: it was looked up by name or label, or the drawing left a doubt.

Conditions: cited from earlier work

SMILES: [Ga] [gallium]
- minimum solubility (pH 5.2): 10^−7 2 M
- solubility (pH 10): ~10^−3.3 M
